For some of these results: The same purity stands for every peptide and may come from a single statement. For some of these results: HELM strings list residues between dots; [ac] is acetyl, [am] amide, other brackets name non-standard units. Where a SMILES comes first, the peptide text is derived from it. Bridges are numbered along the chain shown (N, C = ends). Roman numbers before positions name the chains, in order. Triazole bridges read from a SMILES are 1,4-linked. Where no end group is shown, it is not given here. Side-chain parts run from the residue outwards. [ ]: non-standard residue; d: D form. The star is where a group is joined. X2 = CN1C(=C/C=C/C=C/C2=[N+](CCCCCC(=O)*)c3ccc(S(=O)(=O)[O-])cc3C2(C)C)C(C)(C)c2cc(S(=O)(=O)O)ccc21; X1 = CN1C(=CC=CC=CC2=[N+](CCCCCC(=O)*)c3ccc(S(=O)(=O)[O-])cc3C2(C)C)C(C)(C)c2cc(S(=O)(=O)O)ccc21; Lys(N3) = [N-]=[N+]=NCCCC[C@H](N)C(=O)O; Cit = NC(=O)NCCC[C@H](N)C(=O)O; d(hCys) = N[C@H](CCS)C(=O)O; PEG3 = NCCOCCOCCOCCC(=O)O; Pra = C#CC[C@H](N)C(=O)O
How the values were obtained:
[1] = system: THP-1 cells; assay: Fluorescence correlation spectroscopy (FCS) in the cytosol; conditions: THP-1 cytosol, 72 h incubation
Description: (§1) 3 Quantification of Cy5-labeled peptides in the cytosol. (A) RP-HPLC (λex = 640 nm, λem = 670 nm) of cleavage products of Cy5-labeled peptides in the lysate of HEK293_CMKLR1-eYFP cells after incubation with 1 μM peptide for different durations. […] (B) Representative fluorescence correlation spectroscopy (FCS) autocorrelation curves of Cy5-labeled peptides measured in the cytosol of HEK293_CMKLR1-eYFP cells after 72 h of incubation. Measured curves were fitted with a model for hindered 3D diffusion and diffusion time t D and anomalous coefficient α were calculated from the fit. Autocorrelation data represent mean ± SD of up to 10 consecutive 5 s measurements in a single cell. (C) Intracellular concentrations of Cy5-labeled peptides after 72 h incubation calculated from the fitted autocorrelation curves obtained in HEK293_CMKLR1-eYFP, HMEC-1, and THP-1 cells. Each data point corresponds to FCS measurements from the cytosol of a single cell. Median with the interquartile range is shown. Data from three independent experiments. Statistical comparison by log-normal unpaired t test. ***p ≤ 0.001, **p ≤ 0.01, *p ≤ 0.05, ns – not significant. […] (D) Calculated diffusion coefficients from the fitted autocorrelation curves. Median with the interquartile range is shown. […]
(§2) Fluorescence correlation spectroscopy (FCS)
(§3) Cytosolic delivery was quantified by FCS as has been described previously.3–5 Stably transfected HEK293_CMKLR1-eYFP cells were seeded at 30,000 cells per well and HMEC-1 cells at 10,000 cells per well into poly-ᴅ-lysine-coated 8-well microscopy slides (ibidi) in their respective cell culture medium. THP-1 cells were resuspended in fresh cell culture medium at 100,000 cells/mL in 500 µL cell culture medium in uncoated 12-well plates. The next day, dilutions of Cy5-labeled peptides were added to the cells and incubated for 72 h. Cell membranes of HMEC-1 and THP-1 cells were stained with 20 µg/mL Alexa Fluor 488-labeled concanavalin A (Invitrogen) for 20 min to enable identification of the cytosol. Nuclei were counterstained with Hoechst33342, and cells were washed with FluoroBriteTM DMEM (Gibco) + 25 mM HEPES (pH 7.4). After washing, THP-1 cells were transferred to poly-ᴅ-lysine-coated 8-well microscopy slides and allowed to sediment and adhere for 1 h. Confocal imaging and FCS were performed at 22 °C on a TCS SP8 FALCON microscope (Leica) with a Plan-Apochromat 40x/1,10 water immersion objective and HyD single molecule detector (Leica). The 638 nm laser line was used for excitation at 0.5% power and […]

[2] = system: HEK293_CMKLR1-eYFP cells; assay: as above; conditions: 72 h incubation
Description: as §1, §2, §3

[3] = system: HMEC-1 cells; assay: as above; conditions: HMEC-1 cytosol, 72 h incubation
Description: as §1, §2, §3

[4] = general procedure: Fmoc solid-phase peptide synthesis; TGR Rink amide resin (NovaSyn); oxyma/DIC; HATU/DIPEA for ethylene glycol linkers; conditions: for final HPLC purity: RP-HPLC on two different columns (Aeris Peptide XB-C18, Jupiter Proteo C12)
[5] = conjugation step, one disulfide bridge, sequence written open

With `CC(=O)N[C@@H](CCCCn1cc(C[C@H](NC(=O)CCOCCOCCOCCNC(=O)[C@H](CCCNC(N)=O)NC(=O)[C@@H](NC(=O)[C@H](CCC(=O)O)NC(=O)CNC(=O)CNC(=O)[C@@H](CCCNC(=N)N)NC(=O)[C@@H](CC(C)C)NC(=O)[C@@H](CC(C)C)NC(=O)[C@@H](C)NC(=O)[C@@H](CCC(=O)O)NC(=O)[C@@H](Cc2ccccc2)NC(=O)[C@@H](C)NC(=O)[C@@H](CC(C)C)NC(=O)[C@H]2CCCN2C(=O)[C@@H](Cc2c[nH]c3ccccc23)NC(=O)[C@@H](Cc2c[nH]c3ccccc23)NC(=O)[C@@H](CC(=O)O)NC(=O)CCOCCOCCOCCNC(=O)CCCCC[N+]2=C(/C=C/C=C/C=C3N(C)c4ccc(S(=O)(=O)O)cc4C3(C)C)C(C)(C)c3cc(S(=O)(=O)[O-])ccc32)C(C)C)C(N)=O)nn1)C(=O)N[C@@H](Cc1ccc(O)cc1)C(=O)N[C@@H](Cc1ccccc1)C(=O)N1CCC[C@H]1C(=O)N[C@@H]1CCSSC[C@@H](C(=O)O)NC(=O)[C@H](Cc2ccccc2)NC(=O)[C@H](C)NC(=O)[C@H](Cc2ccccc2)NC(=O)[C@H](CCC(N)=O)NC1=O` [2Cy] (I: {X2-PEG3}-[dD][dW][dW][dP][dL][dA][dF][dE][dA][dL][dL][dR]GGEV[Cit][PEG3][Pra]-NH2 / II: Ac-[Lys(N3)]YFP[d(hCys)]QFAFC-OH; triazole I:19-II:1; disulfide II:5-II:10) the “median intracellular diffusion coefficient” value [1] was 28.9 μm^2/s, the “median intracellular diffusion coefficient” value [2] was 13.1 μm^2/s and the “median intracellular diffusion coefficient” value [3] was 180 μm^2/s.
For Ac–K(N3)YFP-hcys-QFAFC–OH, the “final HPLC purity” value ([4]; whole synthesis, scale of the general procedure 15 µmol, one disulfide bridge, sequence written open) was over 95%.
In the case of “Cy5-(EG)3-dwwplafeallrGEV-Cit-(EG)3-Pra(cC9)-NH2”, the “final HPLC purity” value [4, 5] is reported as over 95%.
With “GSVSHHHHHHGGHHHH-(EG)3-k(Cy5-(EG)3)dwwplafeallrGEV-Cit-(EG)3-Pra(cC9)-NH2” the “final HPLC purity” value [4, 5] was over 95% and the conjugation yield [4, 5] was 33%.
With “I: GSVSHHHHHHGGHHHH[PEG3][dK]([PEG3-X1])[dD][dW][dW][dP][dL][dA][dF][dE][dA][dL][dL][dR]GEV[Cit][PEG3][Pra]-NH2 / II: Ac-[Lys(N3)]YFP[d(hCys)]QFAFC-OH (triazole I:36-II:1; disulfide II:5-II:10) [3Cy]” the “median intracellular diffusion coefficient” value [1] was 32.6 μm^2/s, the “median intracellular diffusion coefficient” value [2] was 11.3 μm^2/s and the “median intracellular diffusion coefficient” value [3] was 169 μm^2/s.
For “PEPTIDE1{G.S.V.S.H.H.H.H.H.H.G.G.H.H.H.H.[EG3].[dD].[dW].[dW].[dP].[dL].[dA].[dF].[dE].[dA].[dL].[dL].[dR].G.E.V.[Cit].[EG3].[PraTz].[am]}|PEPTIDE2{[ac].[LysTz].Y.F.P.[D-hCys].Q.F.A.F.C}$PEPTIDE1,PEPTIDE2,35:R3-2:R3|PEPTIDE2,PEPTIDE2,6:R3-11:R3$$$V2.0”, the “final HPLC purity” value ([4]; conjugation step) was over 95%.
In the case of “PEPTIDE1{[dR].[dR].[dR].[dR].[dR].[dR].[dR].[dR].[dR].[EG3].[dD].[dW].[dW].[dP].[dL].[dA].[dF].[dE].[dA].[dL].[dL].[dR].G.E.V.[Cit].[EG3].[Pra].[am]}$$$$V2.0”, the “final HPLC purity” value ([4]; whole synthesis, scale of the general procedure 15 µmol) is reported as over 95%.
In the case of dwwplafeallrGEV-Cit-(EG)3-Pra(cC9)-NH2, the “final HPLC purity” value [4, 5] is reported as over 95%.
